According to patent US20240142403A1 (priority 2022, published 2024):

Test: Breath sample assay for TCE and associated byproducts (SUPER SESI-HRMS, negative-ion mode)
Set-up: species or system human; key: a “—” denotes non-detection
Conditions: healthy subject; for value of abundance in breath, Breath 2: breath 2 of five; for value of abundance in breath, Breath 3: breath 3 of five; for value of abundance in breath, Breath 4: breath 4 of five; for value of abundance in breath, Breath 5: breath 5 of five; for value of abundance in breath, Breath 1: breath 1 of five

1,2-dichlorovinyl cysteine [1,2-dichlorovinyl cysteine (DCVC)]
—: value of abundance in breath, Breath 2 | value of abundance in breath, Breath 3 | value of abundance in breath, Breath 4 | value of abundance in breath, Breath 5

N[C@@H](CCC(=O)N[C@@H](CSC(Cl)=CCl)C(=O)NCC(=O)O)C(=O)O [1,2,dichlorovinyl glutathione]
—: value of abundance in breath, Breath 1 | value of abundance in breath, Breath 2 | value of abundance in breath, Breath 3 | value of abundance in breath, Breath 4 | value of abundance in breath, Breath 5

ClC=C(Cl)Cl [Trichlorethylene, Trichloroethylene]
—: value of abundance in breath, Breath 3 | value of abundance in breath, Breath 4 | value of abundance in breath, Breath 5

S=C=CCl [chlorothioketene]
—: value of abundance in breath, Breath 1 | value of abundance in breath, Breath 2 | value of abundance in breath, Breath 3 | value of abundance in breath, Breath 4 | value of abundance in breath, Breath 5

O=C(O)C(Cl)(Cl)Cl [trichloro acetic acid]
—: value of abundance in breath, Breath 1 | value of abundance in breath, Breath 2 | value of abundance in breath, Breath 3 | value of abundance in breath, Breath 4 | value of abundance in breath, Breath 5

OCC(Cl)(Cl)Cl [trichloroethanol]
—: value of abundance in breath, Breath 1 | value of abundance in breath, Breath 2 | value of abundance in breath, Breath 3 | value of abundance in breath, Breath 4 | value of abundance in breath, Breath 5
